Test results: patent US10736932B2, “Small molecule Ras inhibitors” (Ohio State Innovation Foundation, priority 2014, dated 2020)
Not every detail of the peptide structures is certain; ends, links or a residue may be inferred. Square brackets hold non-standard residues; d marks the D form. Peptide text beside a SMILES is read from it. * marks the point of attachment. FITC = O=C1OC2(c3ccc(O)cc3Oc3cc(O)ccc32)c2ccc(NC(=S)*)cc21; Phe(4-F) = N[C@@H](Cc1ccc(F)cc1)C(=O)O; d2Nal = N[C@H](Cc1ccc2ccccc2c1)C(=O)O; dNle = CCCC[C@@H](N)C(=O)O

Target: T1, K-Ras(G12V) (Homo sapiens, UniProt P01116, G12V)
T1 construct: The G12V mutant K-Ras (amino acids 1-185) was recombinantly fused; GST (N, cleaved yes); made in house; host or cells: Escherichia coli BL21
Experiment: Fluorescence anisotropy (FA) binding of FITC-labeled cyclic peptides to K-Ras
Conditions: relative to unlabeled Cyclorasin 9A5

## CCCC[C@H]1NC(=O)[C@H](Cc2ccc(F)cc2)NC(=O)[C@H](CCCNC(=N)N)NC(=O)[C@@H](Cc2ccc3ccccc3c2)NC(=O)[C@H](CCCCNC(=S)Nc2ccc3c(c2)C(=O)OC32c3ccc(O)cc3Oc3cc(O)ccc32)NC(=O)[C@H](CCCNC(=N)N)NC(=O)[C@H](CCCNC(=N)N)NC(=O)[C@@H](C)NC(=O)[C@H]([C@@H](C)O)NC(=O)[C@H](Cc2c[nH]c3ccccc23)NC(=O)[C@H](CCC(N)=O)NC1=O [FITC-9A5] (cyclo(K(FITC)[d2Nal]R[Phe(4-F)][dNle]QWT[dA]RR))
  reduction of binding affinity for K-Ras by replacement of Arg at position 6 with Lys(FITC): 3-4 fold
